No constants are given. Whether binding was seen depends on the method and setting. Binding seen in cells or lysates may run through a third protein. A yes stands for co-enrichment or nearness to the bait. Other partners may have been found. Where a sequence is shown, tags or fusion partners need not be part of it.
T1: NNMT-GFP, full length (human) (UniProt P40261)
T1 sequence: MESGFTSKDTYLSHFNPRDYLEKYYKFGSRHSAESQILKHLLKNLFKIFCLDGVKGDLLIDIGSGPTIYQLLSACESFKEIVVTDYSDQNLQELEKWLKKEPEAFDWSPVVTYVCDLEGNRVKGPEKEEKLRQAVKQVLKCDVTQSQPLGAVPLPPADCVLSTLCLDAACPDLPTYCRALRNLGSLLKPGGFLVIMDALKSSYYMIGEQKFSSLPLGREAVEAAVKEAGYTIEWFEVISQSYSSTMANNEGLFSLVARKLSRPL

Protein sequences, listed by entry. Tags and fused reporters are not part of them.
UniProt Q14258: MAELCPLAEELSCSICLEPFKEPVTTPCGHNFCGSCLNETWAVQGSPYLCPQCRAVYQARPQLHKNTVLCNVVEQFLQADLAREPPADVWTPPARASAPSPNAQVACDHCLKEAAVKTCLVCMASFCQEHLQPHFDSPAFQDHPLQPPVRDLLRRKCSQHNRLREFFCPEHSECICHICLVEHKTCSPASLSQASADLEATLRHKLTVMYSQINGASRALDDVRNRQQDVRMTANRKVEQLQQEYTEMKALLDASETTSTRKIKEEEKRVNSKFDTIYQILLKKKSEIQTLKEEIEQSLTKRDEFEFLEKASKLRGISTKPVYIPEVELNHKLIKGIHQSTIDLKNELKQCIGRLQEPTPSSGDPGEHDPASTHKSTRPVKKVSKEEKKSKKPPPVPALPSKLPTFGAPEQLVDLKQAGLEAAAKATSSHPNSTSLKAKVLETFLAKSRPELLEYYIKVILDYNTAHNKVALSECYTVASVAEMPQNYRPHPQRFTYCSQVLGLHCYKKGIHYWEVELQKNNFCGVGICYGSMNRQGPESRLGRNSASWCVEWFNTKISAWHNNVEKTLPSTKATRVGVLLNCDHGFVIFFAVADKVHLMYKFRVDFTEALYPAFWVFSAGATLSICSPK


Molecular target: T1, NNMT-GFP, full length (human)
Test: affinity purification with mass spectrometry; HEK293T cells overexpressing NNMT-GFP, IP lysis buffer, GFP antibody, SDS-PAGE bands digested, LC-MS/MS

Molecule	binding
tripartite-motif protein 25 (TRIM25), endogenous (from UniProt Q14258 1-630) (enzyme)	binds
tripartite-motif protein 56 (TRIM56), endogenous (enzyme, UniProt Q9BRZ2 1-755) MVSHGSSPSLLEALSSDFLACKICLEQLRAPKTLPCLHTYCQDCLAQLADGGRVRCPECRETVPVPPEGVASFKTNFFVNGLLDLVKARACGDLRAGKPACALCPLVGGTSTGGPATARCLDCADDLCQACADGHRCTRQTHTHRVVDLVGYRAGWYDEEARERQAAQCPQHPGEALRFLCQPCSQLLCRECRLDPHLDHPCLPLAEAVRARRPGLEGLLAGVDNNLVELEAARRVEKEALARLREQAARVGTQVEEAAEGVLRALLAQKQEVLGQLRAHVEAAEEAARERLAELEGREQVARAAAAFARRVLSLGREAEILSLEGAIAQRLRQLQGCPWAPGPAPCLLPQLELHPGLLDKNCHLLRLSFEEQQPQKDGGKDGAGTQGGEESQSRREDEPKTERQGGVQPQAGDGAQTPKEEKAQTTREEGAQTLEEDRAQTPHEDGGPQPHRGGRPNKKKKFKGRLKSISREPSPALGPNLDGSGLLPRPIFYCSFPTRMPGDKRSPRITGLCPFGPREILVADEQNRALKRFSLNGDYKGTVPVPEGCSPCSVAALQSAVAFSASARLYLINPNGEVQWRRALSLSQASHAVAALPSGDRVAVSVAGHVEVYNMEGSLATRFIPGGKASRGLRALVFLTTSPQGHFVGSDWQQNSVVICDGLGQVVGEYKGPGLHGCQPGSVSVDKKGYIFLTLREVNKVVILDPKGSLLGDFLTAYHGLEKPRVTTMVDGRYLVVSLSNGTIHIFRVRSPDS	binds

Source: PMC11948025
